Some of the results follow. These are further read-outs of the screen, such as a control signal, another cell line or another target. No call is given for them. The list favours compounds with an active or inconclusive main result. Potencies come from curve fits of mixed quality, noted in brackets.
Assay: qHTS Assay for Lipid Storage Modulators in Drosophila S3 Cells;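 on cell number change: cells counted by Cell Tracker Red CMTPX staining in the red channel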
Details: BODIPY lipid droplet fluorescence, 18-24 h; for cell number change: measured here: cell count max response, cells fed with added oleic acid
Method in brief: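 Drosophila S3 cells loaded with oleic acid (400 uM, as added) and compounds at several concentrations; lipid droplets imaged by 488-nm laser-scanning cytometry, 500–530 nm intensity and object ratio to cell channel. Percent activity normalized to 20 uM Triacsin C.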

[1] = measured here: cell number channel AC50, cells fed with added oleic acid
[2] = measured here: lipid fluorescence (Fed channel) AC50, cells fed with added oleic acid

SMILES: O=C(Nc1scc(-c2ccccc2)c1C(=O)O)c1ccccc1Cl
- cell number change: 36.1%
- AC50 [1]: 6.51 µM [rising, full curve, poor fit]
- AC50 [2]: 29.1 µM [falling, single point]

SMILES: CC(=O)N1c2ccccc2Sc2ccccc21
- cell number change: 16.6%
- AC50 [2]: 29.1 µM [rising, single point]

SMILES: COc1cc(CCCN2CCNC[C@@H]2Cc2ccccc2)cc(OC)c1OC
- cell number change: -45.6%
- AC50 [1]: 29.1 µM [falling, single point]
- AC50 [2]: 0.651 µM [rising, full curve, poor fit]

SMILES: COCCNC(=O)C(c1ccc(C)cc1)N(C(=O)CCC(=O)Nc1ccccn1)c1ccc(C)cc1 (configuration not stated)
- cell number change: 6.96%

SMILES: CCC1Sc2ccc(S(=O)(=O)Nc3ccc(OC)c(OC)c3)cc2NC1=O (configuration not stated)
- cell number change: 18.7%
- AC50 [2]: 6.51 µM [falling, single point]

SMILES: Cc1cccc(OCCC(=O)NCC(=O)Nc2cccc(C)c2C)c1
- cell number change: 7.46%
- AC50 [1]: 6.51 µM [rising, single point]
- AC50 [2]: 6.51 µM [rising, partial curve, poor fit]

SMILES: Cc1cccc(N(C(=O)c2snc(C(N)=O)c2N)C(C(=O)NC2CCCC2)c2ccncc2)c1 (configuration not stated)
- cell number change: 3.85%

SMILES: CC(C)NC(=O)[C@H](CSCc1ccccc1)N1Cc2ccccc2C1=O
- cell number change: 12.1%
- AC50 [2]: 9.2 µM [rising, partial curve]

SMILES: c1csc(-c2nn[nH]n2)c1
- cell number change: -15.3%
- AC50 [2]: 29.1 µM [falling, single point]

SMILES: COc1ccc([N+](=O)[O-])cc1NC(=S)NC(NC(=O)C(c1ccccc1)c1ccccc1)C(Cl)(Cl)Cl (configuration not stated)
- cell number change: -34.6%
- AC50 [1]: 18.4 µM [falling, single point]
- AC50 [2]: 29.1 µM [falling, single point]

SMILES: Cc1cc(OCC(=O)Nc2ccncc2)cc(C)c1Cl
- cell number change: -56.4%
- AC50 [1]: 9.2 µM [falling, partial curve]

SMILES: CC(=O)COC(=O)CNC(=O)c1ccc(Br)cc1
- cell number change: -20.1%
- AC50 [1]: 2.59 µM [falling, full curve, poor fit]
- AC50 [2]: 16.4 µM [falling, partial curve]

SMILES: N#CC1(P(=O)(c2ccccc2)c2ccccc2)CC1
- cell number change: -2.28%
- AC50 [2]: 4.11 µM [falling, full curve, poor fit]

SMILES: O=C1Nc2ccccc2S/C1=C/NCc1ccccc1Cl
- AC50 [2]: 0.326 µM [rising, single point]

SMILES: Cc1nnc(NC(=O)C2C3C=CC(O3)C2C(=O)O)s1 (configuration not stated)
- cell number change: -3.94%
- AC50 [1]: 0.92 µM [falling, single point]
- AC50 [2]: 0.651 µM [falling, single point]

SMILES: Cc1ccccc1Oc1nc2c(C)cccn2c(=O)c1/C=C(\C#N)C(=O)NC1CCS(=O)(=O)C1 (configuration not stated)
- cell number change: -8.17%
- AC50 [2]: 0.0058 µM [falling, full curve, poor fit]

SMILES: O=c1oc2ccccc2c(NCCc2ccccc2)c1[N+](=O)[O-]
- cell number change: 0.569%
- AC50 [2]: 6.51 µM [falling, single point]

SMILES: CC(OC(=O)/C=C/c1ccc2ccccc2n1)C(=O)NCc1ccccc1 (configuration not stated)
- cell number change: 43.8%
- AC50 [1]: 16.4 µM [rising, single point]

SMILES: COc1ccc(/C=C/C(=O)OCC(=O)NCC2CCCO2)cc1 (configuration not stated)
- cell number change: 2.26%
- AC50 [1]: 0.13 µM [rising, full curve, poor fit]
- AC50 [2]: 4.11 µM [rising, full curve]

SMILES: N=C(c1cccc([N+](=O)[O-])c1)N1CCCCCC1
- cell number change: 2%
- AC50 [2]: 1.84 µM [falling, partial curve, poor fit]

SMILES: O=C(/C=C1\SC(=O)N(CC(=O)Nc2ccc(Cl)cc2)C1=O)Nc1ccc(F)cc1
- cell number change: 5.8%

SMILES: Cc1nnc(Sc2cc(C(=O)NCCCOC(C)C)c3ccccc3n2)s1
- cell number change: 12.3%
- AC50 [2]: 18.4 µM [rising, partial curve]

SMILES: CCOC(=O)Cn1c(C)cc(=O)c2cccc(C)c21
- cell number change: -1.68%

SMILES: Cc1cc(Cl)ccc1N=c1ssnc1Cl
- cell number change: -17.1%
- AC50 [2]: 18.4 µM [falling, single point]

SMILES: Cc1noc(C)c1CSCC(=O)Nc1nc2ccc(Oc3ccccc3)cc2s1
- AC50 [1]: 0.103 µM [rising, partial curve, poor fit]
- AC50 [2]: 20.6 µM [falling, single point]

SMILES: COc1ccc(C2C(C(C)=O)=C(O)C(=O)N2c2ccc(F)cc2)cc1 (configuration not stated)
- cell number change: -1.93%
- AC50 [2]: 0.184 µM [falling, full curve, poor fit]

SMILES: CC(C)OC(=O)Cn1nnc(-c2ccccc2)n1
- cell number change: 4.83%
- AC50 [2]: 0.184 µM [falling, full curve, poor fit]

SMILES: COc1ccc(OC)c(C2=NS(=O)(=O)N(C)C(C(=O)NCc3cccs3)=C2)c1
- cell number change: -14.3%
- AC50 [2]: 10.3 µM [falling, partial curve]

SMILES: CCOc1ccc(-c2c[n+]3c(n2-c2ccccc2)CCCCC3)cc1
- cell number change: -28.3%
- AC50 [2]: 18.4 µM [falling, partial curve]

SMILES: O=S(=O)(c1cc(F)ccc1F)N1CCN2CCCC2C1 (configuration not stated)
- cell number change: 14.2%
- AC50 [2]: 29.1 µM [rising, single point]

SMILES: COc1ccccc1NC(=O)CN1C(=O)COc2ccc(S(=O)(=O)N3CCCCCC3)cc21
- cell number change: -1.53%
- AC50 [2]: 29.1 µM [rising, single point]

SMILES: COc1cc(O)c2c(c1)OC(C)(C)CC2=O
- AC50 [2]: 5.8 µM [falling, single point]

SMILES: O=C(O)C1C2C=CC(C2)C1C(=O)Nc1cccc(Cl)c1 (configuration not stated)
- cell number change: 8.33%

SMILES: Cc1cc(C)n(CC(=O)NC2CCCN(Cc3ccc(Cl)cc3)C2)n1 (configuration not stated)
- AC50 [2]: 29.1 µM [rising, single point]

SMILES: Cc1ccsc1C(=O)N1CCN(c2ncccn2)CC1
- cell number change: -67%
- AC50 [1]: 29.1 µM [falling, single point]
- AC50 [2]: 29.1 µM [falling, single point]

SMILES: CCOc1ccc(N2C(=O)CC(NC3CCN(C(=O)c4cccs4)CC3)C2=O)cc1 (configuration not stated)
- cell number change: -10.5%
- AC50 [2]: 4.11 µM [rising, full curve]

SMILES: COc1ccc2cc3cc(C(=O)NCCN4CCc5ccccc5C4)sc3nc2c1
- cell number change: 25.3%
- AC50 [2]: 0.58 µM [rising, full curve]

SMILES: O=C(CSc1nnc(Cn2cnc3ccccc32)o1)c1ccccc1
- AC50 [2]: 29.1 µM [rising, single point]

SMILES: N#Cc1ccccc1S(=O)(=O)N1CCN(CC(O)COc2ccccc2F)CC1 (configuration not stated)
- AC50 [2]: 6.51 µM [falling, single point]

SMILES: COCCN(C(=O)Cn1c(C(F)(F)F)nc2ccccc21)c1c(N)n(Cc2ccccc2)c(=O)[nH]c1=O
- cell number change: -49.5%
- AC50 [1]: 10.3 µM [falling, partial curve]

SMILES: Cn1c(Cn2c(=O)sc3ccccc32)nnc1SCC(=O)NCc1ccccc1Cl
- cell number change: -48.2%
- AC50 [1]: 10.3 µM [falling, partial curve]
- AC50 [2]: 6.51 µM [falling, single point]

SMILES: CC(=O)OCCCNc1cc(Sc2ccc(C)cc2)c2nonc2c1[N+](=O)[O-]
- cell number change: -11.2%
- AC50 [2]: 0.116 µM [falling, full curve, poor fit]

SMILES: COc1cccc(N2C(=NC(=O)COc3ccccc3)SC3CS(=O)(=O)CC32)c1 (configuration not stated)
- cell number change: 31.3%
- AC50 [1]: 0.92 µM [rising, full curve, poor fit]

SMILES: O=C(CN1CCC(NC(=O)c2ccccc2F)CC1)Nc1ccc2c(c1)OCCO2
- cell number change: 2.51%
- AC50 [2]: 29.1 µM [rising, single point]

SMILES: CC1CCCCN1C(=O)CSc1ccc(-c2ccc(F)cc2)nn1 (configuration not stated)
- cell number change: 3.09%

SMILES: CCN(CC)c1ccc(NC2CC(=O)N(CCc3ccc(OC)cc3)C2=O)cc1 (configuration not stated)
- cell number change: -26%

SMILES: CC(OC(=O)c1ccc(Cl)nc1)C(=O)NC1CCCC1 (configuration not stated)
- cell number change: 0.241%
- AC50 [2]: 0.58 µM [rising, single point]

SMILES: Cc1[nH]ccc(=O)c1OCC(=O)O
- cell number change: 29.5%
- AC50 [2]: 6.51 µM [falling, single point]

SMILES: CCOC(=O)C(=O)Nc1ccc(S(=O)(=O)Nc2nccs2)cc1
- cell number change: -6.22%
- AC50 [2]: 0.0517 µM [rising, partial curve, poor fit]

SMILES: CN(C(=O)COC(=O)c1ccc2c(c1)OCCO2)c1ccccc1
- cell number change: -39.7%
- AC50 [2]: 8.91 µM [rising, partial curve]

SMILES: COc1ccccc1N1CCN(CCCOc2ccc(F)cc2)CC1
- cell number change: 2.01%
- AC50 [2]: 29.1 µM [rising, single point]

SMILES: O=C(Cn1cnc2c(nnn2Cc2ccc(F)cc2)c1=O)Nc1ccc2c(c1)OCCO2
- cell number change: 55.7%
- AC50 [1]: 18.4 µM [rising, single point]

SMILES: CCCc1cc(=O)oc2cc(O[C@@H]3O[C@H](CO)[C@@H](O)[C@H](O)[C@H]3O)ccc12
- cell number change: 8.33%

SMILES: CCOC(=O)C1=C(C)NC2=C(C1c1ccc([N+](=O)[O-])cc1)S(=O)(=O)c1ccccc12 (configuration not stated)
- cell number change: 40.4%
- AC50 [1]: 1.64 µM [rising, single point]
- AC50 [2]: 6.51 µM [rising, single point]

SMILES: COc1ccccc1N1CCN(C(=O)c2ccccc2NC(=O)C2CCCCC2C(=O)O)CC1 (configuration not stated)
- cell number change: -0.37%
- AC50 [1]: 0.731 µM [rising, full curve, poor fit]

SMILES: COc1cc(C(=O)Nc2cccc(-c3nncn3C)c2)cc(OC)c1OC
- cell number change: 14.6%
- AC50 [2]: 6.51 µM [falling, single point]

SMILES: COc1ccc(-c2nnc(N3CCOCC3)c3ccccc23)cc1
- cell number change: -22.3%

SMILES: Cc1cc(/C=C2\NC(=S)N(C)C2=O)ccc1N1CCCC1
- cell number change: -98%
- AC50 [1]: 18.4 µM [falling, single point]
- AC50 [2]: 18.4 µM [falling, single point]

SMILES: Oc1ccc2cccnc2c1
- cell number change: 13.7%
- AC50 [1]: 0.13 µM [falling, full curve, poor fit]

SMILES: CC(C)C(NC(=O)CCNC(=O)c1ccc(C(C)(C)C)cc1)c1nc2ccccc2[nH]1 (configuration not stated)
- cell number change: -46.2%
- AC50 [1]: 20.6 µM [falling, partial curve]
